No constants are given. Whether binding was seen depends on the method and setting. In cells and extracts the contact can be indirect. Binding calls can cover weak binding; strength is not graded here. Sequences can lack the tags named with a protein.
Target: T1, GFP-tagged TXNIP full length (F) (UniProt Q9H3M7)
T1 sequence: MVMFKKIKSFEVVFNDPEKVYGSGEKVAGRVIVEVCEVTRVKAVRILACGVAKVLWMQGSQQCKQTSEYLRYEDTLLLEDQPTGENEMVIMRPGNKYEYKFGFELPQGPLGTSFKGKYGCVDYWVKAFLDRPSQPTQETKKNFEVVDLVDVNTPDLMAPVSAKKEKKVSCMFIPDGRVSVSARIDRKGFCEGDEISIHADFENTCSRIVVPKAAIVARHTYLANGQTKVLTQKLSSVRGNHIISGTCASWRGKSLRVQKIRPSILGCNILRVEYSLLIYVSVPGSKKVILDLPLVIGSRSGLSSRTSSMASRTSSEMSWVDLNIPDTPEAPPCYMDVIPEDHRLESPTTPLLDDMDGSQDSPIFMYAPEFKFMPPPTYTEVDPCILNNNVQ
Test: co-IP; HEK293T cells co-transfected with tagged constructs, lysed 24 h later; IP with anti-Myc (NLRP3 constructs) or anti-GFP (TXNIP constructs) antibody, Western blot for HA and the bait's tag

binding	Substance
binds	HA-tagged PARP-1, DNA binding domain deleted (dDBD) (domain or fragment)
binds	HA-tagged PARP-1, catalytic domain deleted (dCD) (domain or fragment)

From paper PMC8801414
